The values below come from PMC7887217.

Assay [1] has as its target T1, CASTOR1 in MCF7 cells (not stated (in human MCF7 cells)) (UniProt Q8WTX7).
T1 sequence: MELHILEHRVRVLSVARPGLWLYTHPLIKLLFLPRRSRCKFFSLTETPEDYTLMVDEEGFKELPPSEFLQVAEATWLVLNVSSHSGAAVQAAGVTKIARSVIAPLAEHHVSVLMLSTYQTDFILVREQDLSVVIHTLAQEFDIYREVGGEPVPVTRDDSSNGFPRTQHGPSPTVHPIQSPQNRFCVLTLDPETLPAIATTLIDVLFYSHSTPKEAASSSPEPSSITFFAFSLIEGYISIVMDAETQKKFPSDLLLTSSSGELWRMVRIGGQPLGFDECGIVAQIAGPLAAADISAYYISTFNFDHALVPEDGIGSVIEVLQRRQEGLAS
Description: co-IP; MCF7 cells; antibody-conjugated agarose beads, immunoblot. Background: Immunoblotting shows a protein as a band on a membrane.

Assay [2] deals with T2, Flag-CASTOR1 WT (human cytosolic arginine sensor for mTORC1 subunit 1) (human) (UniProt Q8WTX7).
T2 sequence: T1 sequence
The assay can be described thus: co-IP; CASTOR1 with AKT1, AKT1 domains or endogenous AKT; cells not given; lysis in 50 mM Tris-HCl pH 7.4, 150 mM NaCl, 1 mM EDTA, 1% Triton X-100; antibody-conjugated agarose beads at 4 °C overnight; immunoblot.

No constants are given. Whether binding was seen depends on the method and setting. In cells and extracts the contact can be indirect. Binding calls can cover weak binding; strength is not graded here. For some assays here: Tags and fused reporters may be left off the sequences shown.

“endogenous AKT (human (endogenous in 293T and MCF7)) (enzyme)”: the binding entry in assay [1] and in assay [2] was “binds” each time.
